This is an account of results in the supplement of paper PMC11264405.

Common to all, as to test: minimum inhibitory concentration
Compound in one assay: CC(=O)NC[C@H]1CN(c2ccc(N3CCOCC3)c(F)c2)C(=O)O1 [linezolid]
Compound in a further assay: CCC[C@@H]1C[C@@H](C(=O)N[C@@H]([C@H]2O[C@H](SC)[C@H](O)[C@@H](O)[C@H]2O)[C@H](C)Cl)N(C)C1 [clindamycin]
Compound in a further assay: CCc1c(Cl)c(O)c(Cl)c(O)c1C(=O)O[C@H]1[C@H](O)[C@H](OC)[C@H](OC/C2=C\C=C\C[C@H](O)/C(C)=C/[C@H](CC)[C@@H](O[C@@H]3OC(C)(C)[C@@H](OC(=O)C(C)C)[C@H](O)[C@@H]3O)/C(C)=C/C(C)=C/C[C@@H]([C@@H](C)O)OC2=O)O[C@@H]1C [fidaxomicin]
Compound in a further assay: CN(C)c1cc(NC(=O)CNC(C)(C)C)c(O)c2c1C[C@H]1C[C@H]3[C@H](N(C)C)C(O)=C(C(N)=O)C(=O)[C@@]3(O)C(O)=C1C2=O [tigecycline]
Compound in the next assay: CN[C@H](CC(C)C)C(=O)N[C@H]1C(=O)N[C@@H](CC(N)=O)C(=O)N[C@H]2C(=O)N[C@H]3C(=O)N[C@H](C(=O)N[C@H](C(=O)O)c4cc(O)cc(O)c4-c4cc3ccc4O)[C@H](O)c3ccc(c(Cl)c3)Oc3cc2cc(c3O[C@@H]2O[C@H](CO)[C@@H](O)[C@H](O)[C@H]2O[C@H]2C[C@](C)(N)[C@H](O)[C@H](C)O2)Oc2ccc(cc2Cl)[C@H]1O [vancomycin]
Compound in another assay: CO[C@H]1/C=C/O[C@@]2(C)Oc3c(C)c(O)c4c(O)c(c(/C=N/N5CCN(C)CC5)c(O)c4c3C2=O)NC(=O)/C(C)=C\C=C\[C@H](C)[C@H](O)[C@@H](C)[C@@H](O)[C@@H](C)[C@H](OC(C)=O)[C@@H]1C [rifampicin]
Compound in another assay: C[C@@H](O)[C@H]1C(=O)N2C(C(=O)O)=C(SCCNC=N)C[C@H]12 [imipenem]
Compound in a further assay: C[C@@H](O)[C@H]1C(=O)N2C(C(=O)O)=C(S[C@@H]3CN[C@H](C(=O)N(C)C)C3)[C@H](C)[C@H]12 [meropenem]
Compound in another assay: Cc1ncc([N+](=O)[O-])n1CCO [metronidazole]

Where only a bound is given, the exact number is not on record here.

For the test system “Clostridioides difficile PCR ribotype 020 isolate #96 (European region: North, country: Ireland, isolate source: Human, ribotype: 020)”, the minimum inhibitory concentration is 2 µg/mL with linezolid; 16 µg/mL in the assay with clindamycin; 0.015 µg/mL with fidaxomicin; under 0.03 µg/mL with tigecycline; 1 µg/mL in the assay with vancomycin; under 0.001 µg/mL with rifampicin. Besides, the figures for the minimum inhibitory concentration with imipenem, with meropenem and with metronidazole were 2 µg/mL, 4 µg/mL and under 0.125 µg/mL, respectively.
On to “Clostridioides difficile PCR ribotype 020 isolate #97 (European region: West, country: France, isolate source: Human, ribotype: 020)”, for which the minimum inhibitory concentration was 2 µg/mL with linezolid; 8 µg/mL with clindamycin; 0.015 µg/mL with fidaxomicin; under 0.03 µg/mL with tigecycline; 1 µg/mL with vancomycin; under 0.001 µg/mL with rifampicin. Besides, the values for the minimum inhibitory concentration with imipenem, with meropenem and in the assay with metronidazole were 2 µg/mL, 4 µg/mL and under 0.125 µg/mL, respectively.
For “Clostridioides difficile PCR ribotype 020 isolate #98 (European region: South, country: Spain, isolate source: Human, ribotype: 020)”, the minimum inhibitory concentration stood at 2 µg/mL in the assay with linezolid; 8 µg/mL in the assay with clindamycin; 0.125 µg/mL in the assay with fidaxomicin; 0.06 µg/mL with tigecycline; 0.5 µg/mL with vancomycin; 0.002 µg/mL with rifampicin. Besides, the values for the minimum inhibitory concentration with imipenem, with meropenem and with metronidazole were 4 µg/mL, 4 µg/mL and 0.25 µg/mL, respectively.
With “Clostridioides difficile PCR ribotype 020 isolate #99 (European region: North, country: UK, isolate source: Human, ribotype: 020)”, the minimum inhibitory concentration with linezolid is 2 µg/mL; with clindamycin, 16 µg/mL; in the assay with fidaxomicin, 0.03 µg/mL; with tigecycline, 0.06 µg/mL; in the assay with vancomycin, 0.5 µg/mL; with rifampicin it was under 0.001 µg/mL. For the same test system, the figures for the minimum inhibitory concentration with imipenem, in the assay with meropenem and in the assay with metronidazole were 2 µg/mL, 2 µg/mL and 0.25 µg/mL, respectively.
As for “Clostridioides difficile PCR ribotype 020 isolate #100 (European region: West, country: Belgium, isolate source: Human, ribotype: 020)”, the minimum inhibitory concentration with linezolid is 2 µg/mL; with clindamycin, 16 µg/mL; with fidaxomicin, 0.03 µg/mL; in the assay with tigecycline it was 0.125 µg/mL; with vancomycin, 0.5 µg/mL; in the assay with rifampicin, under 0.001 µg/mL. Further, the minimum inhibitory concentration with imipenem came to 2 µg/mL; in the assay with meropenem, 2 µg/mL; with metronidazole, 0.25 µg/mL.
Regarding “Clostridioides difficile PCR ribotype 020 isolate #101 (European region: North, country: UK, isolate source: Human, ribotype: 020)”, the minimum inhibitory concentration with linezolid is under 0.125 µg/mL; in the assay with clindamycin, 0.25 µg/mL; in the assay with fidaxomicin, 0.03 µg/mL; with tigecycline, 0.06 µg/mL; in the assay with vancomycin, 0.5 µg/mL; with rifampicin, under 0.001 µg/mL. Moreover, the minimum inhibitory concentration with imipenem is 2 µg/mL; with meropenem, 2 µg/mL; with metronidazole it was under 0.125 µg/mL.
For “Clostridioides difficile PCR ribotype 020 isolate #102 (European region: North, country: UK, isolate source: Human, ribotype: 020)”, the minimum inhibitory concentration in the assay with linezolid was 2 µg/mL; with clindamycin it was 8 µg/mL; with fidaxomicin it was 0.06 µg/mL; in the assay with tigecycline it was 0.06 µg/mL; with vancomycin, 0.5 µg/mL; in the assay with rifampicin it was under 0.001 µg/mL. The figures for the minimum inhibitory concentration with imipenem, with meropenem and in the assay with metronidazole were 4 µg/mL, 8 µg/mL and 0.25 µg/mL, respectively.
For the test system “Clostridioides difficile PCR ribotype 020 isolate #103 (European region: North, country: UK, isolate source: Human, ribotype: 020)”, the minimum inhibitory concentration with linezolid is 2 µg/mL; with clindamycin, 8 µg/mL; with fidaxomicin it was 0.06 µg/mL; with tigecycline, 0.06 µg/mL; with vancomycin, 0.5 µg/mL; in the assay with rifampicin, under 0.001 µg/mL. In addition, the results for the minimum inhibitory concentration with imipenem, with meropenem and with metronidazole were 4 µg/mL, 8 µg/mL and 0.25 µg/mL, respectively.
As to “Clostridioides difficile PCR ribotype 020 isolate #104 (European region: South, country: Spain, isolate source: Human, ribotype: 020)”, the minimum inhibitory concentration was 2 µg/mL in the assay with linezolid; 4 µg/mL with clindamycin; 0.015 µg/mL with fidaxomicin; under 0.03 µg/mL in the assay with tigecycline; 0.5 µg/mL in the assay with vancomycin; 0.002 µg/mL in the assay with rifampicin. In addition, the minimum inhibitory concentration with imipenem was 2 µg/mL; with meropenem, 4 µg/mL; with metronidazole, under 0.125 µg/mL.
As for “Clostridioides difficile PCR ribotype 020 isolate #105 (European region: East, country: Poland, isolate source: Human, ribotype: 020)”, the minimum inhibitory concentration with linezolid is 2 µg/mL; in the assay with clindamycin, 8 µg/mL; with fidaxomicin it was 0.03 µg/mL; in the assay with tigecycline, 0.06 µg/mL; with vancomycin it was 1 µg/mL; with rifampicin it was under 0.001 µg/mL. The figures for the minimum inhibitory concentration with imipenem, with meropenem and in the assay with metronidazole were 1 µg/mL, 2 µg/mL and 0.25 µg/mL, respectively.
With “Clostridioides difficile PCR ribotype 020 isolate #308 (European region: South, country: Spain, isolate source: Animal, ribotype: 020)”, the minimum inhibitory concentration was 2 µg/mL in the assay with linezolid; 16 µg/mL with clindamycin; 0.06 µg/mL in the assay with fidaxomicin; 0.06 µg/mL with tigecycline; 0.5 µg/mL with vancomycin; under 0.001 µg/mL with rifampicin. In addition, the minimum inhibitory concentration with imipenem turned out to be 1 µg/mL; with meropenem it was 4 µg/mL; in the assay with metronidazole, 0.25 µg/mL.
As to “Clostridioides difficile PCR ribotype 020 isolate #309 (European region: South, country: Spain, isolate source: Animal, ribotype: 020)”, the minimum inhibitory concentration is 2 µg/mL with linezolid; 16 µg/mL with clindamycin; 0.03 µg/mL with fidaxomicin; 0.06 µg/mL with tigecycline; 0.5 µg/mL with vancomycin; under 0.001 µg/mL with rifampicin. In addition, the minimum inhibitory concentration was 1 µg/mL in the assay with imipenem, 4 µg/mL with meropenem and 0.25 µg/mL in the assay with metronidazole.
